## Library screening results

Chains of the proteins cited; added tags and fusions are not shown.
UniProt E9BF75, entry or part of it: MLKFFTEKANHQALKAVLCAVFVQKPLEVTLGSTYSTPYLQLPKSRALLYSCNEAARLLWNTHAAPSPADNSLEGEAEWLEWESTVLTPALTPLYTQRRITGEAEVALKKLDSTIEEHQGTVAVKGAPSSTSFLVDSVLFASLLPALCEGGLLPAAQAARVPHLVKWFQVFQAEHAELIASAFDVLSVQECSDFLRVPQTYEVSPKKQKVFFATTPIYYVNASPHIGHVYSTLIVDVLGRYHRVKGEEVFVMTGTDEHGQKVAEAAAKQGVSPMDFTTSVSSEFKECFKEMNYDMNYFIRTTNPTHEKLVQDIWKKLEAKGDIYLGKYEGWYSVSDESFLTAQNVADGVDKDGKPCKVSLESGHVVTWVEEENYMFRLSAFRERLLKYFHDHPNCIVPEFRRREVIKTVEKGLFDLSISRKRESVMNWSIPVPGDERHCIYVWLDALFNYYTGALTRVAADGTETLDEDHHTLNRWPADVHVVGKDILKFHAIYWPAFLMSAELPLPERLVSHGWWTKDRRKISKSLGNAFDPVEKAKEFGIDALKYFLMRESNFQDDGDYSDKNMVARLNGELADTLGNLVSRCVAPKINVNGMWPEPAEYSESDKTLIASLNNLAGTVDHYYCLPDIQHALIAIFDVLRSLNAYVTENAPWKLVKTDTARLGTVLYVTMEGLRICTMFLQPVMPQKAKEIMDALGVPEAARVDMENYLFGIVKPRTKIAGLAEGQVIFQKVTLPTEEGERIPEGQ

Mtb heat-shock: 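Assay on Mycobacterium tuberculosis, filed only as a heat shock assay from Cornell; the read-out is not stated. The concentration is filed as 10 mM, unlikely as a test dose, so the dose is not known. Direction is inferred from retests: higher values go with stronger inhibition. About 69,000 compounds were tested under these conditions; 1.4% (about 930) showed 50% or more at least once.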
LdMetRS: 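Methionyl-tRNA synthetase (putative), Leishmania donovani (UniProt E9BF75). Primary screen of methionyl-tRNA synthetase; the read-out is not stated. The test concentration is not given. Values are per cent inhibition. Of about 68,000 compounds tested this way, about 24 (0.035%) reached 50% or more in at least one test.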
Mtb growth Cornell: 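Whole-cell assay for inhibitors of Mycobacterium tuberculosis growth, labelled Cornell in the record; the read-out is not stated. The concentration is filed as 10 mM, unlikely as a test dose, so the dose is not known. Higher means stronger inhibition (inferred from two other growth screens of the library). Size under these conditions: about 53,000 compounds, about 900 of them at 50% or above in at least one test.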

Results are percentages, as filed.
The record does not define 0% and 100%; most values in the screen are far below 50% and negative numbers occur (in some assays of this library far below -100).
Compounds were drawn at random from those tested, without regard to their results.
A dash means the value is not listed here; it may have been measured.

Compound,Mtb heat-shock,LdMetRS,Mtb growth Cornell
Cn1ccnc1C(=O)N1C[C@@H]2CCN(c3cnccn3)C[C@@H]2C1,-,3.361%,-
CCCN(C(=O)c1ocnc1C)C1CCCN(Cc2ccccc2)C1 (configuration not stated),2.241%,8.333%,14.83%
[H][C@@]12CNC[C@]1([H])N(C(=O)C1CCCC1)CCO2,-22.81%,-,-28.08%
CCCOc1ccc(CC2=NC(C)(CO)CO2)cc1 (configuration not stated),5.878%,-0.6865%,-18.43%
CN1C(=O)C2(CCN(C(=O)C3CCOCC3)CC2)c2ccccc21,3.54%,8.964%,10.41%
COCC1CN(Cc2ccoc2)Cc2cn(CC3CCCC3)nc21 (configuration not stated),12.61%,4.38%,29.57%
O=C(Cc1cccnc1)N1CCCC2(CCN(C3CCOCC3)C2)C1.O=C(O)C(F)(F)F.O=C(O)C(F)(F)F (configuration not stated),-32%,-,-45.11%
O=C(Nc1ccc(-c2csnn2)cc1)N1CCN2CCCCC2C1 (configuration not stated),-8.807%,14.97%,16.51%
COc1cccc(C(CO)NC(=O)NC(C)C)c1 (configuration not stated),-10.38%,12.21%,-59.14%
CCCS(=O)(=O)N1CCC2(CC(=O)N(c3cnn(C)c3)C2)C1 (configuration not stated),-7.104%,9.446%,-10.95%
Cn1c(=O)c2cc(C(=O)NCCOCC(F)(F)F)ccc2n(C)c1=O,-25.09%,4.595%,-51.96%
COCCC1(C(=O)O)CCCN(C(=O)c2cc(Cl)ccc2F)C1 (configuration not stated),-18.98%,2.09%,-18.48%
Cc1ccc(-c2nc(CCNC(=O)NC3CCC(O)CC3)co2)cc1 (configuration not stated),-5.848%,19.94%,-9.389%
CCNC(=O)C1CCN(c2nccc(C3CCCC3)n2)C1 (configuration not stated),-1.742%,19.93%,13%
CC(C)c1ncc2c(n1)CN(Cc1nc(-c3cccs3)no1)CC2,35.18%,18.1%,53.42%
Clc1ccc2nc(N3CCC(NCCCC4CCOC4)CC3)sc2c1 (configuration not stated),-14.53%,4.194%,-11.26%
O=C(O)c1cc(-c2ccoc2)cc(S(=O)(=O)N2CCSCC2)c1,3.169%,10.8%,-1.792%
Cc1ccccc1CCC1CCCN(Cc2nnc(-c3ccco3)o2)C1 (configuration not stated),-7.93%,18.4%,29.35%
CCCN1CCC2(CC1)COc1ccccc1S(=O)(=O)N(CC1CC1)C2,-,11.24%,-
CCCc1nc(C(C)(C)NC(=O)C2CC(=O)N(CC3CC3)C2)no1 (configuration not stated),24.49%,15.56%,13.49%
[H][C@]12CN(C(=O)c3ccc4c(c3)CCCC4)C[C@]1([H])N(C)C(=O)CO2,-8.27%,-,-31.46%
Cc1cc(C)nc(N2CCN(Cc3nccn3C)CC2)n1,-,6.771%,-
COCc1noc(CN2CC(Cc3ccccc3)CC2=O)n1 (configuration not stated),21.7%,12.13%,12.76%
CNC(=O)[C@@]12CCCN(c3ncccn3)[C@@H]1CN(C)C2,-,4.902%,-
CC(CC#N)NC(=O)c1cc(Br)c2c(c1)OCCO2 (configuration not stated),7.485%,13.29%,-
O=C1OCCN1Cc1ncnn1Cc1c(F)cccc1Cl,5.666%,4.604%,-32.12%
CCN1CCn2c(C)cnc2C12CCN(C(=O)c1ccco1)CC2,-,7.372%,-
CCN1C[C@H]2[C@@H](C1)N(C(=O)Cc1ccsc1)CC[C@H]2OC,-,20.17%,-
CCn1cc(CN(C)S(=O)(=O)N2CCCC2c2ccco2)cn1 (configuration not stated),-3.788%,12.2%,15.62%
CS(=O)(=O)NC1CCCN(C(=O)NCc2cc[nH]n2)C1 (configuration not stated),-5.954%,16.67%,-
N#Cc1cc2c(nc1O)CCCCC2,4.719%,8.919%,-24.16%
O=C1CCCC2=C1C(c1ccc(Cl)cc1Cl)Nc1nonc1N2 (configuration not stated),15.96%,18.87%,5.793%
O=C(N[C@@H]1CCC[C@@H](N2CCOCC2)[C@@H]1O)c1ncccn1,12.17%,3.215%,-14.19%
NC(=O)Cn1ccnc1C1CCCN(Cc2cccc(Cl)c2F)C1 (configuration not stated),-17.71%,18.56%,26.47%
CN1CC(Nc2nc3c(cnn3-c3ccccc3)c(=O)[nH]2)CCC1=O (configuration not stated),1.296%,7.888%,29.01%
Cc1cnc(Nc2cccc(C3CCCN3Cc3cn(C)nc3C)n2)s1 (configuration not stated),104.4%,-38.95%,23.5%
Cc1noc(C)c1C(C)NC(=O)N1CCCN(C(=O)c2ccsc2)CC1 (configuration not stated),-2.732%,10.48%,22.12%
CC(C)Cn1cncc1CNC1CCSC1 (configuration not stated),-14.85%,8.993%,0.8076%
COc1cccn(CC(=O)N2CCCC3(CCCCC3)C2)c1=O,23.3%,14.73%,26.94%
O=C(O)C(F)(F)F.[H][C@@]12COC[C@@H](CC(=O)N3CCCC3)[C@]1([H])CN(C(=O)c1ccccn1)C2,-1.457%,-,12.09%
CC(=O)c1cccc(NC(=O)COc2c(C)n(C)ccc2=O)c1,-6.674%,16.18%,-
COc1ccccc1C(O)CNC(=O)NCc1csc(C)n1 (configuration not stated),-13.58%,29.05%,-
O=c1c2ccccc2nc2n1C(CSc1cccc(C(F)(F)F)c1)CN2 (configuration not stated),0.4065%,14.02%,31.52%
O=C(O)C(F)(F)F.[H][C@@]12COC[C@]1(C(=O)NCC1CC1)CN(Cc1scnc1C)C2,3.466%,-,-
COCc1nc(C)cc(Nc2ccc3c(c2)CC(=O)N3)n1,-16.97%,13.04%,14.38%
O=C(O)C(F)(F)F.[H][C@@]12COC[C@]1(COCC)CN(Cc1ccc(F)c(F)c1)C2,12.53%,-,2.946%
COc1coc(CN2CCCC(CCc3ccc(F)c(F)c3)C2)cc1=O (configuration not stated),-19.7%,15.32%,1.867%
CC(=O)c1cc(CC(=O)NCc2ccc(F)cc2)cs1,-9.06%,11.23%,-
O=C(C[C@@H]1COC[C@H]2CN(C(=O)c3ccccn3)C[C@@H]12)N1CCCC1,-,19.02%,-
Cn1ncc2c1CCCC2NCc1cccc(C(F)(F)F)c1 (configuration not stated),-,7.055%,-
COc1ccc(C(=O)Nc2cccc(C(N)=O)c2)c(OC)n1,33.14%,7.5%,-0.68%
CC(C1CC1)N(C)C(=O)CCn1cccn1 (configuration not stated),-12.25%,2.308%,-7.022%
Cc1sc2nc(CCN)nc(N(C)CCCC3CCCO3)c2c1C (configuration not stated),-4.681%,11.88%,-
CC[C@H](Cn1ncc2ccccc2c1=O)NC(=O)c1cnc(C)cn1,6.51%,6.915%,-2.442%
Cc1ccsc1CN(C)C(=O)Cn1nc(-c2ccc(F)cc2)oc1=O,-15.59%,9.859%,-6.568%
O=C(O)C(F)(F)F.[H][C@@]12CCCO[C@]1([H])[C@H](N(C)C)CN2C(=O)Cc1ccc(F)cc1,-22.98%,-,-23.64%
O=C(c1ccccn1)N1CCc2c(nc(N3CCCC3)[nH]c2=O)C1,3.822%,16.78%,16.95%
O=C(O)C(F)(F)F.[H][C@@]12CCN(Cc3ccccc3F)C[C@]1(COC)CCO2,-30.72%,-,0.2815%
O=S(=O)(Cc1nc(C2CC2)no1)c1ccccc1F,12.43%,8.207%,4.173%
Cc1ccc(NC2CCN(C(=O)c3ccco3)CC2)nn1,-21.51%,2.222%,-36.54%
O=C(c1ccoc1)N1CCC2(CC1)C(=O)N(CC1CC1)c1ccccc12,-14.13%,0.5602%,15.9%
COc1ccc(OC)c(NC(=O)c2nc3ccccc3n(C)c2=O)c1,14.06%,14.71%,27.42%
Oc1ccc(N2CCC(Cc3ccccc3)CC2)nn1,4.619%,15.97%,-
CN(C)C(=O)C1CCN(C2CCN(CC3CC3)CC2)CC1,-,1.099%,-

From ChEMBL document CHEMBL3988442, “University of Dundee, Small-Polar-MMV Screening Library” (2021).